The values below come from publication PMC10967477.

Holding throughout (assay): co-IP; endogenous proteins in total protein lysate of untreated (unstimulated) human podocytes; immunoprecipitation with antibodies against SH3BP2, VAV2 or PLCγ2, followed by Western blotting for each protein
A general note: In western blotting, separated proteins are transferred to a membrane and probed.

For assay [1], the target named is T1, phospholipase Cγ2 (PLCγ2) (human (endogenous in human podocytes)) (UniProt P16885).
T1 sequence: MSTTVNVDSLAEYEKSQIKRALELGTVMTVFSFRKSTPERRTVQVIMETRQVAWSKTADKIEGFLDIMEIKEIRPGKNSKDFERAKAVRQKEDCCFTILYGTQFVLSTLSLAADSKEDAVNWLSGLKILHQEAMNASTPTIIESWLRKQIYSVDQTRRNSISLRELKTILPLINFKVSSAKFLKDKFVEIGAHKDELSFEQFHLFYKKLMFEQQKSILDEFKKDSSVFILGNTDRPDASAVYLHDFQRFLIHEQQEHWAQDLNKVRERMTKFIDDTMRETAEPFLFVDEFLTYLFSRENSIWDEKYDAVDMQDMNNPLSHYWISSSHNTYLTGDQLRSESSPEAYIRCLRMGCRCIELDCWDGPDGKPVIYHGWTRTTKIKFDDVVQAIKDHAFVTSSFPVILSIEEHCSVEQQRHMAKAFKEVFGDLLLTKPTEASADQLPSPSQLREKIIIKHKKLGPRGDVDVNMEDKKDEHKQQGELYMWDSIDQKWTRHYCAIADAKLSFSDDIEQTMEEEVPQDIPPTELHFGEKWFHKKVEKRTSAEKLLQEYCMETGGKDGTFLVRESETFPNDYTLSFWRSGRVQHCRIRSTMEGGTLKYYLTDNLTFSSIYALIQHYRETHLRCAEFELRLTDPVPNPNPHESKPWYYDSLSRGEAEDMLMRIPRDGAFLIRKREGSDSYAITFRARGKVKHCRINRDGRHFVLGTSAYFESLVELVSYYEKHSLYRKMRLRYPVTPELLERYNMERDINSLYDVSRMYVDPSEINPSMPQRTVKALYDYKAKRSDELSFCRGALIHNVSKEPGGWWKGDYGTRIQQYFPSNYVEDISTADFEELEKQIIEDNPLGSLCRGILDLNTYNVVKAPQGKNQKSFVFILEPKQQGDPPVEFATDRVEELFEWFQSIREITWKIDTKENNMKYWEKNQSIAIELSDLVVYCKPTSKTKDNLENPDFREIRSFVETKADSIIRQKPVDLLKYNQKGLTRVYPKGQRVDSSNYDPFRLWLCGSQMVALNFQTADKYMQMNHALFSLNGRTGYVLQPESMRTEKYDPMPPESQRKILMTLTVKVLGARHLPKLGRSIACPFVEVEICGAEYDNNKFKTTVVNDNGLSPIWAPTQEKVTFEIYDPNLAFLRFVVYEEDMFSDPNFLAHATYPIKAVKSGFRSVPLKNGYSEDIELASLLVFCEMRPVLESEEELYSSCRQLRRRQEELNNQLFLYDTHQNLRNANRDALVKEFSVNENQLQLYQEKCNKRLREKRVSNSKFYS

In assay [2] the target is T2, Src homology 3-binding protein 2 (SH3BP2) (human (endogenous in human podocytes)) (UniProt P78314).
T2 sequence: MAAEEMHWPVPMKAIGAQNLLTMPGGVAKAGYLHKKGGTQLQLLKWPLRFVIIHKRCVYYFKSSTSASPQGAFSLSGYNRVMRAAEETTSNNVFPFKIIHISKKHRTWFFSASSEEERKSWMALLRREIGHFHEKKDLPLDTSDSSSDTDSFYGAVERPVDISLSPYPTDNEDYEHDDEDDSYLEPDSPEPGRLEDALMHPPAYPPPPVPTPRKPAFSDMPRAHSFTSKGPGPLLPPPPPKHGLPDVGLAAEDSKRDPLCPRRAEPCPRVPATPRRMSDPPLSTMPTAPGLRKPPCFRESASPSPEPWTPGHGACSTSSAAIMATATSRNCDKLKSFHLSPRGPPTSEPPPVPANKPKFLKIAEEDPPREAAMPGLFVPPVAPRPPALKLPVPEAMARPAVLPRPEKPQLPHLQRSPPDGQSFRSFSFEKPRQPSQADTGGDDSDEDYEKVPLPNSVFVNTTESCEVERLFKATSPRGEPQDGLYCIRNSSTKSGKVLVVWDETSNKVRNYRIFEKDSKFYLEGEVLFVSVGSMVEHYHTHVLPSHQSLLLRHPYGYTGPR

In assay [3] the target is T3, Rho-guanine nucleotide exchange factor VAV2 (VAV2) (human (endogenous in human podocytes)) (UniProt P52735).
T3 sequence: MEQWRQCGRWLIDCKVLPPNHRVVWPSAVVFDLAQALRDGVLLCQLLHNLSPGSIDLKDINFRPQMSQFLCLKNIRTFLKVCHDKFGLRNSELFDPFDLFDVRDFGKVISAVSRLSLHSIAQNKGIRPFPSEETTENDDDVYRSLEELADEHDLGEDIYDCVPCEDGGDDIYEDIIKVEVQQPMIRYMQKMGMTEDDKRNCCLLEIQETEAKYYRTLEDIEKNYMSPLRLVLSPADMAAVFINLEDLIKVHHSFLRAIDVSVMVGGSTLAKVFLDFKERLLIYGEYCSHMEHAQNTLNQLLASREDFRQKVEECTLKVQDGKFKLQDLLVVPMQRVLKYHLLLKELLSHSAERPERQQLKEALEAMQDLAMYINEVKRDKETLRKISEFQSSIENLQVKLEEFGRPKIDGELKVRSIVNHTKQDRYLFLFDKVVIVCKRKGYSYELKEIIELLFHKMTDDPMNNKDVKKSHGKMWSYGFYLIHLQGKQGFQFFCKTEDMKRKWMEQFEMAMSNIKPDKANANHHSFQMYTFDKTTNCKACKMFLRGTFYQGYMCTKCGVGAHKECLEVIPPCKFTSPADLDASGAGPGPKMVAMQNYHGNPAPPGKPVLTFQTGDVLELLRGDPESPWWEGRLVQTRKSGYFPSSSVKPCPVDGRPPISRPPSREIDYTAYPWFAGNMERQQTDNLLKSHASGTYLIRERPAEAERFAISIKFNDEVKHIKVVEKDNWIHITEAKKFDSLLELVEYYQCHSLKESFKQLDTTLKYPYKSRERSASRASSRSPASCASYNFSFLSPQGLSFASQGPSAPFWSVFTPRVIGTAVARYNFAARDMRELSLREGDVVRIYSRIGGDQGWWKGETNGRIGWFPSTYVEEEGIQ

No constants are given. Whether binding was seen depends on the method and setting. In cells and extracts the contact can be indirect. Some entries that bind do so weakly or less than the wild type.

B1: Rho-guanine nucleotide exchange factor VAV2 (VAV2) (protein, UniProt P52735 1-878)
chain: MEQWRQCGRWLIDCKVLPPNHRVVWPSAVVFDLAQALRDGVLLCQLLHNLSPGSIDLKDINFRPQMSQFLCLKNIRTFLKVCHDKFGLRNSELFDPFDLFDVRDFGKVISAVSRLSLHSIAQNKGIRPFPSEETTENDDDVYRSLEELADEHDLGEDIYDCVPCEDGGDDIYEDIIKVEVQQPMIRYMQKMGMTEDDKRNCCLLEIQETEAKYYRTLEDIEKNYMSPLRLVLSPADMAAVFINLEDLIKVHHSFLRAIDVSVMVGGSTLAKVFLDFKERLLIYGEYCSHMEHAQNTLNQLLASREDFRQKVEECTLKVQDGKFKLQDLLVVPMQRVLKYHLLLKELLSHSAERPERQQLKEALEAMQDLAMYINEVKRDKETLRKISEFQSSIENLQVKLEEFGRPKIDGELKVRSIVNHTKQDRYLFLFDKVVIVCKRKGYSYELKEIIELLFHKMTDDPMNNKDVKKSHGKMWSYGFYLIHLQGKQGFQFFCKTEDMKRKWMEQFEMAMSNIKPDKANANHHSFQMYTFDKTTNCKACKMFLRGTFYQGYMCTKCGVGAHKECLEVIPPCKFTSPADLDASGAGPGPKMVAMQNYHGNPAPPGKPVLTFQTGDVLELLRGDPESPWWEGRLVQTRKSGYFPSSSVKPCPVDGRPPISRPPSREIDYTAYPWFAGNMERQQTDNLLKSHASGTYLIRERPAEAERFAISIKFNDEVKHIKVVEKDNWIHITEAKKFDSLLELVEYYQCHSLKESFKQLDTTLKYPYKSRERSASRASSRSPASCASYNFSFLSPQGLSFASQGPSAPFWSVFTPRVIGTAVARYNFAARDMRELSLREGDVVRIYSRIGGDQGWWKGETNGRIGWFPSTYVEEEGIQ
On to B1, for which the binding result in assay [1] and in assay [2] was “binds” throughout.

B2: phospholipase Cγ2 (PLCγ2) (protein, UniProt P16885 1-1265)
chain: MSTTVNVDSLAEYEKSQIKRALELGTVMTVFSFRKSTPERRTVQVIMETRQVAWSKTADKIEGFLDIMEIKEIRPGKNSKDFERAKAVRQKEDCCFTILYGTQFVLSTLSLAADSKEDAVNWLSGLKILHQEAMNASTPTIIESWLRKQIYSVDQTRRNSISLRELKTILPLINFKVSSAKFLKDKFVEIGAHKDELSFEQFHLFYKKLMFEQQKSILDEFKKDSSVFILGNTDRPDASAVYLHDFQRFLIHEQQEHWAQDLNKVRERMTKFIDDTMRETAEPFLFVDEFLTYLFSRENSIWDEKYDAVDMQDMNNPLSHYWISSSHNTYLTGDQLRSESSPEAYIRCLRMGCRCIELDCWDGPDGKPVIYHGWTRTTKIKFDDVVQAIKDHAFVTSSFPVILSIEEHCSVEQQRHMAKAFKEVFGDLLLTKPTEASADQLPSPSQLREKIIIKHKKLGPRGDVDVNMEDKKDEHKQQGELYMWDSIDQKWTRHYCAIADAKLSFSDDIEQTMEEEVPQDIPPTELHFGEKWFHKKVEKRTSAEKLLQEYCMETGGKDGTFLVRESETFPNDYTLSFWRSGRVQHCRIRSTMEGGTLKYYLTDNLTFSSIYALIQHYRETHLRCAEFELRLTDPVPNPNPHESKPWYYDSLSRGEAEDMLMRIPRDGAFLIRKREGSDSYAITFRARGKVKHCRINRDGRHFVLGTSAYFESLVELVSYYEKHSLYRKMRLRYPVTPELLERYNMERDINSLYDVSRMYVDPSEINPSMPQRTVKALYDYKAKRSDELSFCRGALIHNVSKEPGGWWKGDYGTRIQQYFPSNYVEDISTADFEELEKQIIEDNPLGSLCRGILDLNTYNVVKAPQGKNQKSFVFILEPKQQGDPPVEFATDRVEELFEWFQSIREITWKIDTKENNMKYWEKNQSIAIELSDLVVYCKPTSKTKDNLENPDFREIRSFVETKADSIIRQKPVDLLKYNQKGLTRVYPKGQRVDSSNYDPFRLWLCGSQMVALNFQTADKYMQMNHALFSLNGRTGYVLQPESMRTEKYDPMPPESQRKILMTLTVKVLGARHLPKLGRSIACPFVEVEICGAEYDNNKFKTTVVNDNGLSPIWAPTQEKVTFEIYDPNLAFLRFVVYEEDMFSDPNFLAHATYPIKAVKSGFRSVPLKNGYSEDIELASLLVFCEMRPVLESEEELYSSCRQLRRRQEELNNQLFLYDTHQNLRNANRDALVKEFSVNENQLQLYQEKCNKRLREKRVSNSKFYS
For B2, the binding entry in assay [3] and in assay [2] was “binds” throughout.

B3: Src homology 3-binding protein 2 (SH3BP2) (protein, UniProt P78314 1-561)
chain: MAAEEMHWPVPMKAIGAQNLLTMPGGVAKAGYLHKKGGTQLQLLKWPLRFVIIHKRCVYYFKSSTSASPQGAFSLSGYNRVMRAAEETTSNNVFPFKIIHISKKHRTWFFSASSEEERKSWMALLRREIGHFHEKKDLPLDTSDSSSDTDSFYGAVERPVDISLSPYPTDNEDYEHDDEDDSYLEPDSPEPGRLEDALMHPPAYPPPPVPTPRKPAFSDMPRAHSFTSKGPGPLLPPPPPKHGLPDVGLAAEDSKRDPLCPRRAEPCPRVPATPRRMSDPPLSTMPTAPGLRKPPCFRESASPSPEPWTPGHGACSTSSAAIMATATSRNCDKLKSFHLSPRGPPTSEPPPVPANKPKFLKIAEEDPPREAAMPGLFVPPVAPRPPALKLPVPEAMARPAVLPRPEKPQLPHLQRSPPDGQSFRSFSFEKPRQPSQADTGGDDSDEDYEKVPLPNSVFVNTTESCEVERLFKATSPRGEPQDGLYCIRNSSTKSGKVLVVWDETSNKVRNYRIFEKDSKFYLEGEVLFVSVGSMVEHYHTHVLPSHQSLLLRHPYGYTGPR
As for B3, the binding entry in assay [3] and in assay [1] was “binds” in each case.
